This is an account of results in article PMC12489471, “A multi-dentate, cooperative interaction between endo- and exo-ribonucleases within the bacterial RNA degradosome” (Nucleic Acids Research, 2025).

Results are given in words; binding and its absence hold for the method and conditions named. Binding calls can cover weak binding; strength is not graded here.

In this experiment the target is T1, S. enterica PNPase core (Salmonella enterica serovar Typhimurium) (UniProt Q8ZLT3).
T1 sequence: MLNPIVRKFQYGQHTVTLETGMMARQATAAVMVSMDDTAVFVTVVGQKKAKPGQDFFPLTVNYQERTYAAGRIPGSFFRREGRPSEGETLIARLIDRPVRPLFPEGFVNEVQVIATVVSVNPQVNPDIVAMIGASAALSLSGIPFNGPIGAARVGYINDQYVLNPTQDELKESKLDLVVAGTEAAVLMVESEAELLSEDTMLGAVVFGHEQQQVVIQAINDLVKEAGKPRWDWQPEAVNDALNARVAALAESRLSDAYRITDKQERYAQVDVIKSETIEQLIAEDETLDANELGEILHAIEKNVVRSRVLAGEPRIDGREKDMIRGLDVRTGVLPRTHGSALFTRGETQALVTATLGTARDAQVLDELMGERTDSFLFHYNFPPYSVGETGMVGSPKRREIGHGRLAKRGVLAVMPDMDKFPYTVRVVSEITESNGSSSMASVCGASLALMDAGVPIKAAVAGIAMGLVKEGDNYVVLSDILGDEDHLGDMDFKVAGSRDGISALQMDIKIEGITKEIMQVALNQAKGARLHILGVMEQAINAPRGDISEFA
The experiment is described as follows: cryo-EM structure; purified PNPase core and RNase E-muGFP-CHis mixed 1:2, complex separated on Superdex 200 Increase in 20 mM Tris–HCl pH 8.0, 25 mM MgCl2, 150 mM KCl, 1 mM TCEP; 8 mM CHAPSO; E. coli and S. enterica proteins; both purified.

For the substance “S. enterica RNase E 921–1067-muGFP (Salmonella enterica serovar Typhimurium) (domain or fragment)”, the binding result is on record as “binds”.
